Experimental data taken from the supplement of paper PMC3334620.
The full ranking holds about 33,000 sequences; the median of “E-score (-0.5 to 0.5)” is about -0.0034, and the highest 2% start at about 0.25. Some of the results follow.

What follows are sequences tested against T1, Yap3 (UniProt P38749) (assay: PBM E-score (8-mer binding enrichment) (E-score (-0.5 to 0.5)); higher = stronger / more preferred TF binding). Conditions: protein concentration: 100 nM; construct: GST-full length.
T1 sequence: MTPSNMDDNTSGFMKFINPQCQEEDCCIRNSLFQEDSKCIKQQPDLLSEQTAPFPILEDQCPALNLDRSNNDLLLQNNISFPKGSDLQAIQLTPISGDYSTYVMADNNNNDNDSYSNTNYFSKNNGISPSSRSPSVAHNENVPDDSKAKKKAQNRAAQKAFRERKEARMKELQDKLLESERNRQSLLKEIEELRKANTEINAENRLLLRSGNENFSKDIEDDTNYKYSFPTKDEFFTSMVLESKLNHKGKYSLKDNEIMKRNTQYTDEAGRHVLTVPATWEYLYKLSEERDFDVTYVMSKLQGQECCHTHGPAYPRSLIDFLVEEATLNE
In short: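 Yeast transcription factors carrying a GST tag, as full-length proteins or DNA-binding domains, were produced by PURExpress in vitro transcription/translation. About 100-200 nM protein was applied to universal all-10-mer Agilent arrays, double-stranded by primer extension on fresh or once-stripped slides. Bound protein was detected with fluorescent anti-GST, and scans were normalised with masliner. The Universal PBM Analysis Suite gave each ungapped eight-base word, pooled with its reverse complement, an E-score, a modified Wilcoxon-Mann-Whitney statistic.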
With CCTTTTTC the “PBM E-score” value was 0.141. With GTAGTTTA the “PBM E-score” value was 0.203. With GAATAGCA the “PBM E-score” value was 0.109. With AAAAAAAC the “PBM E-score” value was 0.151. ACCCCGTA was tested, and the “PBM E-score” value was 0.0378. GAAACGAC was tested, and the “PBM E-score” value was 0.123. With GCTGCACA the “PBM E-score” value was -0.104. In the case of ACTTGAGG, the “PBM E-score” value is reported as -0.0703. For CAAGGACG, the “PBM E-score” value was -0.26. ACCTAACA was tested, and the “PBM E-score” value was 0.109. With AGTTGGGG the “PBM E-score” value was 0.0985. In the case of CAAAAGGA, the “PBM E-score” value is reported as -0.0326. For CGCACATA, the “PBM E-score” value was -0.0836. AGAGAGCT was tested, and the “PBM E-score” value was -0.224. With CCAGGCCG the “PBM E-score” value was -0.152. With GACGAACA the “PBM E-score” value was -0.0459. For ATTCAAGA, the “PBM E-score” value was -0.0517. GGCAGAAA was tested, and the “PBM E-score” value was 0.2. With CGCTAGTC the “PBM E-score” value was -0.344. For AAGCAATA, the “PBM E-score” value was -0.00615. For ATAGGCCC, the “PBM E-score” value was -0.14. With AACGGCTA the “PBM E-score” value was 0.104. With CTCGTCTA the “PBM E-score” value was -0.117. With AAGTACAC the “PBM E-score” value was 0.072. With GTCCTCAC the “PBM E-score” value was -0.0019. For ACATTAAC, the “PBM E-score” value was 0.015. For GTTTTTCA, the “PBM E-score” value was 0.108. With ACGAGGAT the “PBM E-score” value was -0.125. For AGTTCCGC, the “PBM E-score” value was 0.012. For AGCGTCCT, the “PBM E-score” value was -0.156. For CTCCTTAC, the “PBM E-score” value was 0.0321. In the case of TGACTCAA, the “PBM E-score” value is reported as -0.0905. In the case of ATCCAAAT, the “PBM E-score” value is reported as 0.0146. For ATGGGATA, the “PBM E-score” value was 0.035. With GAAAACCA the “PBM E-score” value was -0.0204. ATCGCATA was tested, and the “PBM E-score” value was 0.143. In the case of ACTGCTCA, the “PBM E-score” value is reported as 0.0439. AGATTCCG was tested, and the “PBM E-score” value was 0.0687. In the case of GGTCCTTA, the “PBM E-score” value is reported as 0.0785. GCGGGCCC was tested, and the “PBM E-score” value was -0.33. In the case of ATTCCCAA, the “PBM E-score” value is reported as 0.193. In the case of CCCTCTTC, the “PBM E-score” value is reported as -0.231. For ACCGCCTA, the “PBM E-score” value was -0.0887. With ACAGCACC the “PBM E-score” value was -0.199. With AGTTATGC the “PBM E-score” value was 0.166. CCATTTTC was tested, and the “PBM E-score” value was 0.167. CATATTAA was tested, and the “PBM E-score” value was 0.299. With ACAGCCGG the “PBM E-score” value was -0.0252. With ACCAAGCA the “PBM E-score” value was 0.093. With GGTTTGGA the “PBM E-score” value was 0.0533. With CTAATTCA the “PBM E-score” value was 0.112. For CGTACAAG, the “PBM E-score” value was -0.0723. For CGCATGTA, the “PBM E-score” value was 0.0255. ATGTCGTG was tested, and the “PBM E-score” value was -0.0787. For AGTTATAA, the “PBM E-score” value was 0.153. For CAGTGAAA, the “PBM E-score” value was -0.0336. In the case of ATGTCTGA, the “PBM E-score” value is reported as 0.137. In the case of AAGCTCGA, the “PBM E-score” value is reported as 0.103. With ACTGTTAC the “PBM E-score” value was 0.171. CCGCATAC was tested, and the “PBM E-score” value was 0.052. In the case of GGTCAGCA, the “PBM E-score” value is reported as -0.0315. For GCGTATAC, the “PBM E-score” value was -0.0519. ATCCAGCA was tested, and the “PBM E-score” value was 0.051. ATGGAGTA was tested, and the “PBM E-score” value was 0.116. For AGGAGAAC, the “PBM E-score” value was -0.105. With CGTTGTAC the “PBM E-score” value was 0.0708. In the case of AATTCTGA, the “PBM E-score” value is reported as 0.117. With GTCCTCAA the “PBM E-score” value was 0.0939. With CGGGTCCC the “PBM E-score” value was -0.454. GTGAGGGA was tested, and the “PBM E-score” value was -0.0903. With TAAGCACA the “PBM E-score” value was 0.179. For ATACACTC, the “PBM E-score” value was 0.0757. With CTCAAGGC the “PBM E-score” value was -0.0478. ATGTGCTC was tested, and the “PBM E-score” value was 0.0695. With ATCCCATG the “PBM E-score” value was -0.00536. In the case of CAACGTCG, the “PBM E-score” value is reported as -0.0111. In the case of GACGCGGA, the “PBM E-score” value is reported as -0.188. For ACTTTACC, the “PBM E-score” value was 0.149. For TGGGATAA, the “PBM E-score” value was 0.0237. In the case of TCCTAGGA, the “PBM E-score” value is reported as -0.119. In the case of CCCCCCTA, the “PBM E-score” value is reported as -0.247. In the case of CGCATATA, the “PBM E-score” value is reported as 0.00761. In the case of GGCGCGTA, the “PBM E-score” value is reported as -0.139. With GATATTCC the “PBM E-score” value was 0.12. TATGCACA was tested, and the “PBM E-score” value was 0.031. GAGTCGAA was tested, and the “PBM E-score” value was 0.0765. With ATGATTCC the “PBM E-score” value was 0.149. For CCAGCATA, the “PBM E-score” value was 0.034. In the case of ACACTTCA, the “PBM E-score” value is reported as 0.0742. CTTCAGGA was tested, and the “PBM E-score” value was -0.0162. AGTCAAAA was tested, and the “PBM E-score” value was 0.0355. GTCTCGGA was tested, and the “PBM E-score” value was 0.00612. AGGCTTGC was tested, and the “PBM E-score” value was -0.152. With AGAGCTCG the “PBM E-score” value was -0.0652. In the case of CCTGATAG, the “PBM E-score” value is reported as -0.142. For ATCGGTCC, the “PBM E-score” value was -0.0985. CCCATAGA was tested, and the “PBM E-score” value was -0.0716. For GTGCGCAC, the “PBM E-score” value was 0.159. For CGCTAAAA, the “PBM E-score” value was 0.0721. ACATCGGT was tested, and the “PBM E-score” value was -0.192. In the case of AAGAGCAA, the “PBM E-score” value is reported as -0.0696. AAGTGACG was tested, and the “PBM E-score” value was 0.0449. In the case of GAAAGTAA, the “PBM E-score” value is reported as 0.0872. With ACCGCCAG the “PBM E-score” value was -0.0424. In the case of CTTCATGC, the “PBM E-score” value is reported as -0.0893. For AGCGTCAC, the “PBM E-score” value was -0.111. In the case of CTTGACCC, the “PBM E-score” value is reported as -0.207. For AGATCAGG, the “PBM E-score” value was -0.117. With GTTCTATA the “PBM E-score” value was 0.0395. TAAAGTAA was tested, and the “PBM E-score” value was 0.136. In the case of ACCTCAAG, the “PBM E-score” value is reported as -0.104. For CATTGAAC, the “PBM E-score” value was 0.07. In the case of AATGACAT, the “PBM E-score” value is reported as 0.162. For CATACCTA, the “PBM E-score” value was -0.0983. CAATAGAG was tested, and the “PBM E-score” value was -0.0767. With ACGTGCCG the “PBM E-score” value was -0.0947. With AGCACGGG the “PBM E-score” value was -0.128. In the case of GCCGAGGA, the “PBM E-score” value is reported as 0.051. With GAGGTGGA the “PBM E-score” value was -0.243. With ACCGAAGG the “PBM E-score” value was -0.183. AGAAGTAT was tested, and the “PBM E-score” value was 0.21. In the case of CGCGTAGA, the “PBM E-score” value is reported as 0.0492. GGAGCAGA was tested, and the “PBM E-score” value was -0.0901. For AGAAGGTC, the “PBM E-score” value was 0.0815. CCCCCGGG was tested, and the “PBM E-score” value was -0.383. In the case of TCGTGACA, the “PBM E-score” value is reported as -0.046. ACCACAGC was tested, and the “PBM E-score” value was -0.0654. For CTAGTTAA, the “PBM E-score” value was 0.26. CTGCGGAC was tested, and the “PBM E-score” value was -0.205. With ACTGCAGA the “PBM E-score” value was -0.0419. For AACTCGGC, the “PBM E-score” value was 0.165. GGGTCCAC was tested, and the “PBM E-score” value was -0.369. With CTGGAAAA the “PBM E-score” value was 0.0934. For AAGACTGG, the “PBM E-score” value was -0.0292. For CGACAGAG, the “PBM E-score” value was -0.0711. With CGAGTCCG the “PBM E-score” value was -0.122. For TACTAAGA, the “PBM E-score” value was 0.242. AGATAGGC was tested, and the “PBM E-score” value was -0.0411. In the case of CAGGGGTC, the “PBM E-score” value is reported as -0.22. CCTCGTCG was tested, and the “PBM E-score” value was -0.0231. In the case of TGGAGCCA, the “PBM E-score” value is reported as -0.194. With AGAAATTA the “PBM E-score” value was 0.202. For CAACGAAC, the “PBM E-score” value was 0.227. With AGAGGAGA the “PBM E-score” value was -0.173. For GGGGTCAC, the “PBM E-score” value was -0.296. In the case of AACTACTT, the “PBM E-score” value is reported as 0.092. CAAGCGGG was tested, and the “PBM E-score” value was -0.252. In the case of GTGGAACA, the “PBM E-score” value is reported as -0.0444. For CTGCCGGC, the “PBM E-score” value was -0.146. CTACCTAC was tested, and the “PBM E-score” value was 0.0255. For CACAGGTA, the “PBM E-score” value was -0.0333. With CCTTATAG the “PBM E-score” value was 0.00973. With ACCCTTCA the “PBM E-score” value was -0.0699. In the case of TAGATTGA, the “PBM E-score” value is reported as -0.0683. For ACTAAGCC, the “PBM E-score” value was 0.042. CCATATCG was tested, and the “PBM E-score” value was 0.0308. In the case of TACCCACA, the “PBM E-score” value is reported as -0.0045. For GAAACAGA, the “PBM E-score” value was 0.2. In the case of GGCCGGTA, the “PBM E-score” value is reported as -0.0931. In the case of TAAGGGTA, the “PBM E-score” value is reported as -0.0459. In the case of ATGCCGGA, the “PBM E-score” value is reported as -0.1. For CAATAACC, the “PBM E-score” value was 0.211. In the case of TCTCCCCA, the “PBM E-score” value is reported as -0.23. With CCGGCTCA the “PBM E-score” value was 0.00949. ATGCCGAG was tested, and the “PBM E-score” value was 0.0429. In the case of CGTATGAA, the “PBM E-score” value is reported as 0.239. With ATGGACTA the “PBM E-score” value was 0.0451. In the case of AAACCCGC, the “PBM E-score” value is reported as 0.126. With CTTCTTTA the “PBM E-score” value was 0.148. In the case of CACACGAA, the “PBM E-score” value is reported as 0.114. With AAGGCGCG the “PBM E-score” value was -0.0685. ATTCCAAT was tested, and the “PBM E-score” value was 0.0727.
